Reference: patent US8367389B2, “Methods, compositions and devices utilizing structurally stable cyanuric acid hydrolase” (Regents of the University of Minnesota, priority 2009, dated 2013)

Test: Metal analysis (ICP) of the enzyme
Type: physicochemical

B1: cyanuric acid hydrolase from M. thermoacetica ATCC 39073: recombinant His-tagged cyanuric acid hydrolase encoded by ORF Moth—2120 of Moorella thermoacetica ATCC 39073, expressed in E. coli (protein, listed as Moorella thermoacetica)
chain: MQKVEVFRIPTASPDDISGLATLIDSGKINPAEIVAILGKTEGNGCVNDFTRGFATQSLAMYLAEKLGISREEVVKKVAFIMSGGTEGVMTPHITVFVRKDVQEPAKPGKRLAVGVAFTRDFLPEELGRMEQVNEVARAVKEAMKDAQIDDPRDVHFVQIKCPLLTAERIEDAKRRGKDVVVNDTYKSMAYSRGASALGVALALGEISADKISNEAICHDWNLYSSVASTSAGVELLNDEIIVVGNSTNSASDLVIGHSVMKDAIDADAVRAALKDAGLKFDCCPPAEELAKIVNVLAKAEAASSGTVRGRRNTMLDDSDINHTRSARAVVNAVIASVVGDPMVYVSGGAEHQGPDGGGPIAVIARV
modifications: His tag
notes: recombinant His-tagged cyanuric acid hydrolase encoded by ORF Moth—2120 of Moorella thermoacetica ATCC 39073, expressed in E. coli
In the case of B1, the “nickel content, molar metal to subunit stoichiometry” value is reported as 0.05 and the “zinc content, molar metal to subunit stoichiometry” value is reported as 0.08.
